Article PMC11792579

The chains behind the UniProt entries cited, without tags or fusion partners.
UniProt O95071: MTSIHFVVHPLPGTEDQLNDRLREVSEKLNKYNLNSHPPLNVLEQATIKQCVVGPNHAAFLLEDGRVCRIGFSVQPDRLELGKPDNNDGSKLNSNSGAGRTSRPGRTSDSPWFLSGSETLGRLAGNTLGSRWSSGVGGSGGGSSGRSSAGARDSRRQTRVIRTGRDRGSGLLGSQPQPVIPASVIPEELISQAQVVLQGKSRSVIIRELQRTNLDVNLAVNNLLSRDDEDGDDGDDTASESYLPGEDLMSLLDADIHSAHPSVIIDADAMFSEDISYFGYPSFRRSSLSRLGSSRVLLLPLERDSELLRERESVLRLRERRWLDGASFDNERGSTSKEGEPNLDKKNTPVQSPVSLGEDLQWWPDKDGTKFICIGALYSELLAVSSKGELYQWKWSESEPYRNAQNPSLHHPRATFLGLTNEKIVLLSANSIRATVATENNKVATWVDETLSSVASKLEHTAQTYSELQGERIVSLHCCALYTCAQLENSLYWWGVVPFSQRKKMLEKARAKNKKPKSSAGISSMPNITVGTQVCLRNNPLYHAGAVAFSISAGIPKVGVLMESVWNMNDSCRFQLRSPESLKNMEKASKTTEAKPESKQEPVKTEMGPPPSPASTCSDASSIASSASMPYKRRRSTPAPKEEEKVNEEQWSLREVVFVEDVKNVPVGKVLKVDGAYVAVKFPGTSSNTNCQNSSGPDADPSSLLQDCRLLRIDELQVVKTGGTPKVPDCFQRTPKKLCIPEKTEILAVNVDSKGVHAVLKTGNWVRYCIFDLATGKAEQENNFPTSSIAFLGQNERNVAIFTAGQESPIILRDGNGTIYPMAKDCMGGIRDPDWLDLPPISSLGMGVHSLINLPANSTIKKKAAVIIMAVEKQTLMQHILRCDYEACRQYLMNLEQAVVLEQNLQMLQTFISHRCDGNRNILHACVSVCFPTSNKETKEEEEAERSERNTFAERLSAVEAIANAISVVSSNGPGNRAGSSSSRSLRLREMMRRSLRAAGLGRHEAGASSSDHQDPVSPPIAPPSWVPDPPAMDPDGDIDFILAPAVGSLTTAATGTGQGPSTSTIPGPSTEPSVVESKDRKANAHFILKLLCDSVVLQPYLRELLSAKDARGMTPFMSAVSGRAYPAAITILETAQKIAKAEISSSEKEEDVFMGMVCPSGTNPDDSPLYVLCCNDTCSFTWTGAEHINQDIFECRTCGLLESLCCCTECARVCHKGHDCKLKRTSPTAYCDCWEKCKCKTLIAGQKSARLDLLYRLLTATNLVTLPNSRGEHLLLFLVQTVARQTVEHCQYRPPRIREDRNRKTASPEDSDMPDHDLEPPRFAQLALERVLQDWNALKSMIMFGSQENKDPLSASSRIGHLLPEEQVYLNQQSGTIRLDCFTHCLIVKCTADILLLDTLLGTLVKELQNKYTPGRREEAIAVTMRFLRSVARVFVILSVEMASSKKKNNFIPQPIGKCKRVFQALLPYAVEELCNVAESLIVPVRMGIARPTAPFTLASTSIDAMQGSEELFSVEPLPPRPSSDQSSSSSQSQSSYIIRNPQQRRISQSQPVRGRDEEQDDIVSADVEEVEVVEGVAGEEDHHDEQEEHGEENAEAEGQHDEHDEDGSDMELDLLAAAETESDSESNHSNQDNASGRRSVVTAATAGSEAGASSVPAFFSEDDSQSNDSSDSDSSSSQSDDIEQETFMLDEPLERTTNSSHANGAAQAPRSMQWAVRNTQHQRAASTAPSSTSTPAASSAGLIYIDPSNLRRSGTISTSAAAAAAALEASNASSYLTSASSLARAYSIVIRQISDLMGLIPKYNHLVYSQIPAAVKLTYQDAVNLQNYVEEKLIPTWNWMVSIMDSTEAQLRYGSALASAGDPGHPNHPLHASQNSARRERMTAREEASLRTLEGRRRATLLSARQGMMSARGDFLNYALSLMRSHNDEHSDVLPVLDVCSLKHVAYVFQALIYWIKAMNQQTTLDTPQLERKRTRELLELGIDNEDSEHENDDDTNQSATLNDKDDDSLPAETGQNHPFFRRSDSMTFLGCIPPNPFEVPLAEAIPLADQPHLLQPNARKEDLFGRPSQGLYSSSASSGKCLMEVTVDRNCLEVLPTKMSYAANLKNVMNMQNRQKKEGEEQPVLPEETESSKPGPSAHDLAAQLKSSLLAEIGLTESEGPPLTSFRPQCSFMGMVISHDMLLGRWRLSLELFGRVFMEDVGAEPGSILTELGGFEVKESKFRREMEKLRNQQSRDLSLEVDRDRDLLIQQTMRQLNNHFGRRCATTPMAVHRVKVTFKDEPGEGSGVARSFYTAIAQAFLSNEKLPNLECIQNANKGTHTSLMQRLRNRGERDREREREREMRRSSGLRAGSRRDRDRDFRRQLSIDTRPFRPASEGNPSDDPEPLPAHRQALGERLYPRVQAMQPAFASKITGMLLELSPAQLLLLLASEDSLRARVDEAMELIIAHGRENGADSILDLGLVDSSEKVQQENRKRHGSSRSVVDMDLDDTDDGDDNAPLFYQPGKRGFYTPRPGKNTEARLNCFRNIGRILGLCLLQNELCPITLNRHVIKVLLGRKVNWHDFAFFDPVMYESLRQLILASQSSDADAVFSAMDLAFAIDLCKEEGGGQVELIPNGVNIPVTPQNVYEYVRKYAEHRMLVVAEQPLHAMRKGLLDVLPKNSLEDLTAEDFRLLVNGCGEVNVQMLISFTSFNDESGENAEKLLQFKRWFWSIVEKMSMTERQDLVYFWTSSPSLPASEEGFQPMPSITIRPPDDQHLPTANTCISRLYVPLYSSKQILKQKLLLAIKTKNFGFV

Target: T1, N-acetyltransferase 10 (NAT10), endogenous (human (endogenous in SW620)) (UniProt Q9H0A0)
T1 sequence: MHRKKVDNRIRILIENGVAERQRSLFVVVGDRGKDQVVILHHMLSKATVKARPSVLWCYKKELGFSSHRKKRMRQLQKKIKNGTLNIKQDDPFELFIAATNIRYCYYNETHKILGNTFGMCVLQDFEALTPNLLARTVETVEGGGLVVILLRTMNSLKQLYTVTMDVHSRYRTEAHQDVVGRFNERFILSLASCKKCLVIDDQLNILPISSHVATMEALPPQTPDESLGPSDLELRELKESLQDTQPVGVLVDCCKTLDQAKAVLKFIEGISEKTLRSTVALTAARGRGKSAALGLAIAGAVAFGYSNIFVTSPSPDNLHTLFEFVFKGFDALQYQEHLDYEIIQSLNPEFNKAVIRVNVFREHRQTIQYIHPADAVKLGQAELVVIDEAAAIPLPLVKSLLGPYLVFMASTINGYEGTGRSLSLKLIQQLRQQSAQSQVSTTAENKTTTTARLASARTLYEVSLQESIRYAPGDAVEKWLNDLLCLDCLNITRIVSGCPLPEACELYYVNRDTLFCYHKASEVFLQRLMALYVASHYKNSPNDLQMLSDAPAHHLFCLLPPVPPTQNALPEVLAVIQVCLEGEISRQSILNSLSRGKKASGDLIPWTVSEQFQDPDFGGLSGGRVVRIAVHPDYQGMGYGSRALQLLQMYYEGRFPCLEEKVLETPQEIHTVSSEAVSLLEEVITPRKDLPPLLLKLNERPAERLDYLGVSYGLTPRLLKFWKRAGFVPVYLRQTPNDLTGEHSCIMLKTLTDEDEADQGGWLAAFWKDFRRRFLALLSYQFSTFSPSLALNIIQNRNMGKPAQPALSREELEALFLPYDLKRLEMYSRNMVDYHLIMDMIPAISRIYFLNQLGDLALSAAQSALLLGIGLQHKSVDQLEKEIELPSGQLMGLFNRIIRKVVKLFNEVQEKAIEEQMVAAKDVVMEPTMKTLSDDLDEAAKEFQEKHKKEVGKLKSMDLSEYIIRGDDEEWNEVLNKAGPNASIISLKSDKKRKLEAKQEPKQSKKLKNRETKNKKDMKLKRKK
Assay: affinity purification with mass spectrometry; NAT10-specific complexes from SW620 cells (shNAT10 or control vectors), LC-MS; details in ref. 12

binding: binds
Substance: Ubiquitin protein ligase E3 component n-recognin 5 (UBR5), endogenous (from UniProt O95071 1-2799)

These are yes or no findings as the source states them, for the method shown. Binding seen in cells or lysates may run through a third protein. Here binding means that the protein was enriched with, or labelled near, the bait; the list need not be complete.
